# From the supplement of paper PMC8728848
# This is one part of the list.
# B1: Thrombomodulin Extracellular (Mus musculus), P15306 (protein)
# chain: MLGIFFLGVLAPASLGLSALAKLQPTGSQCVEHECFALFQGPATFLDASQACQRLQGHLMTVRSSVAADVISLLLSQSSMDLGPWIGLQLPQGCDDPVHLGPLRGFQWVTGDNHTSYSRWARPNDQTAPLCGPLCVTVSTATEAAPGEPAWEEKPCETETQGFLCEFYFTASCRPLTVNTRDPEAAHISSTYNTPFGVSGADFQTLPVGSSAAVEPLGLELVCRAPPGTSEGHWAWEATGAWNCSVENGGCEYLCNRSTNEPRCLCPRDMDLQADGRSCARPVVQSCNELCEHFCVSNAEVPGSYSCMCETGYQLAADGHRCEDVDDCKQGPNPCPQLCVNTKGGFECFCYDGYELVDGECVELLDPCFGSNCEFQCQPVSPTDYRCICAPGFAPKPDEPHKCEMFCNETSCPADCDPNSPTVCECPEGFILDEGSVCTDIDECSQGECFTSECRNFPGSYECICGPDTALAGQISKDCDPIPVREDTKEEEGSGEPPVSPTPGSPTGPPSARPVHSGVLIGISIASLSLVVALLALLCHLRKKQGAARAELEYKCASSAKEVVLQHVRTDRTLQKF
# Key:
# Test in all cases: glycan array binding signal (z-score within array); higher = stronger binding
# Details in all cases: glycan notation: IUPAC condensed, linker removed
# [1] = biological target: GlcNAc(b1-3)Gal(b1-4)GlcNAc(b1-3)Gal(b1-4)GlcNAc(b1-3)GalNAc
# Procedure, shortened: (§1)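 The Consortium for Functional Glycomics database supplied 3228 glycan arrays, of which those lacking an available protein sequence were dropped. The binding signal, a within-array Z-score, was averaged across arrays of the same protein sequence and across linkers. Negative scores can be read as non-binding.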
# [2] = biological target: GlcNAc(b1-3)Gal(b1-4)GlcNAc(b1-3)GalNAc
# Procedure, shortened: as §1
# [3] = biological target: GlcNAc(b1-3)Gal(b1-4)GlcNAc(b1-3)[GlcNAc(b1-3)Gal(b1-4)GlcNAc(b1-3)]GalNAc
# Procedure, shortened: as §1
# [4] = biological target: GlcNAc(b1-3)Gal(b1-4)GlcNAc(b1-6)[Gal(b1-3)]GalNAc
# Procedure, shortened: as §1
# [5] = biological target: GlcNAc(b1-3)Gal(b1-4)GlcNAc(b1-6)[GlcNAc(b1-3)Gal(b1-3)]GalNAc
# Procedure, shortened: as §1
# [6] = biological target: GlcNAc(b1-3)Gal(b1-4)GlcNAc(b1-6)[GlcNAc(b1-3)]Gal(b1-4)GlcNAc
# Procedure, shortened: as §1
# GlcNAc(b1-3)GalNAc = biological target: GlcNAc(b1-3)GalNAc
# Procedure, shortened: as §1
# GlcNAc(b1-3)Man = biological target: GlcNAc(b1-3)Man
# Procedure, shortened: as §1
# [7] = biological target: GlcNAc(b1-3)[GlcNAc(b1-4)][GlcNAc(b1-6)]GlcNAc
# Procedure, shortened: as §1
# [8] = biological target: GlcNAc(b1-3)[GlcNAc(b1-6)]Gal(b1-4)GlcNAc
# Procedure, shortened: as §1
# [9] = biological target: GlcNAc(b1-3)[GlcNAc(b1-6)]GalNAc
# Procedure, shortened: as §1
# [10] = biological target: GlcNAc(b1-4)Gal(b1-4)GlcNAc
# Procedure, shortened: as §1
# GlcNAc(b1-4)GlcNAc = biological target: GlcNAc(b1-4)GlcNAc
# Procedure, shortened: as §1
# [11] = biological target: GlcNAc(b1-4)GlcNAc(b1-4)GlcNAc
# Procedure, shortened: as §1
# [12] = biological target: GlcNAc(b1-4)GlcNAc(b1-4)GlcNAc(b1-4)GlcNAc(b1-4)GlcNAc
# Procedure, shortened: as §1
# [13] = biological target: GlcNAc(b1-4)GlcNAc(b1-4)GlcNAc(b1-4)GlcNAc(b1-4)GlcNAc(b1-4)GlcNAc
# Procedure, shortened: as §1
# [14] = biological target: GlcNAc(b1-4)[GlcNAc(b1-6)]GalNAc
# Procedure, shortened: as §1
# [15] = biological target: GlcNAc(b1-6)Gal(b1-4)GlcNAc
# Procedure, shortened: as §1
# GlcNAc(b1-6)GalNAc = biological target: GlcNAc(b1-6)GalNAc
# Procedure, shortened: as §1
# [16] = biological target: GlcNAc6S(b1-3)Gal(b1-4)GlcNAc
# Procedure, shortened: as §1
# Kdn(a2-3)Gal(b1-3)GalNAc = biological target: Kdn(a2-3)Gal(b1-3)GalNAc
# Procedure, shortened: as §1
# Kdn(a2-3)Gal(b1-3)GlcNAc = biological target: Kdn(a2-3)Gal(b1-3)GlcNAc
# Procedure, shortened: as §1
# Kdn(a2-3)Gal(b1-4)Glc = biological target: Kdn(a2-3)Gal(b1-4)Glc
# Procedure, shortened: as §1
# Kdn(a2-3)Gal(b1-4)GlcNAc = biological target: Kdn(a2-3)Gal(b1-4)GlcNAc
# Procedure, shortened: as §1
# [17] = biological target: Kdn(a2-3)Gal(b1-4)[Fuc(a1-3)]GlcNAc
# Procedure, shortened: as §1
# Kdn(a2-6)Gal(b1-4)GlcNAc = biological target: Kdn(a2-6)Gal(b1-4)GlcNAc
# Procedure, shortened: as §1
# [18] = biological target: Man(a1-2)Man(a1-2)Man(a1-3)Man
# Procedure, shortened: as §1
# [19] = biological target: Man(a1-2)Man(a1-2)Man(a1-6)[Man(a1-3)]Man
# Procedure, shortened: as §1
# Man(a1-2)Man(a1-3)Man = biological target: Man(a1-2)Man(a1-3)Man
# Procedure, shortened: as §1
# [20] = biological target: Man(a1-2)Man(a1-3)[Man(a1-2)Man(a1-6)]Man
# Procedure, shortened: as §1
binder,measurement,setting,value
B1,glycan array binding signal (z-score),[1],-0.162
same,glycan array binding signal (z-score),[2],-0.528
same,glycan array binding signal (z-score),[3],1.44
same,glycan array binding signal (z-score),[4],0.263
same,glycan array binding signal (z-score),[5],-0.188
same,glycan array binding signal (z-score),[6],-0.325
same,glycan array binding signal (z-score),GlcNAc(b1-3)GalNAc,-0.37
same,glycan array binding signal (z-score),GlcNAc(b1-3)Man,0.187
same,glycan array binding signal (z-score),[7],-0.852
same,glycan array binding signal (z-score),[8],0.36
same,glycan array binding signal (z-score),[9],-0.253
same,glycan array binding signal (z-score),[10],0.222
same,glycan array binding signal (z-score),GlcNAc(b1-4)GlcNAc,0.672
same,glycan array binding signal (z-score),[11],1.95
same,glycan array binding signal (z-score),[12],1.75
same,glycan array binding signal (z-score),[13],-0.113
same,glycan array binding signal (z-score),[14],-1.16
same,glycan array binding signal (z-score),[15],0.967
same,glycan array binding signal (z-score),GlcNAc(b1-6)GalNAc,-0.314
same,glycan array binding signal (z-score),[16],-0.079
same,glycan array binding signal (z-score),Kdn(a2-3)Gal(b1-3)GalNAc,-0.442
same,glycan array binding signal (z-score),Kdn(a2-3)Gal(b1-3)GlcNAc,2.1
same,glycan array binding signal (z-score),Kdn(a2-3)Gal(b1-4)Glc,1.43
same,glycan array binding signal (z-score),Kdn(a2-3)Gal(b1-4)GlcNAc,1.32
same,glycan array binding signal (z-score),[17],0.111
same,glycan array binding signal (z-score),Kdn(a2-6)Gal(b1-4)GlcNAc,-0.33
same,glycan array binding signal (z-score),[18],0.237
same,glycan array binding signal (z-score),[19],-0.609
same,glycan array binding signal (z-score),Man(a1-2)Man(a1-3)Man,0.82
same,glycan array binding signal (z-score),[20],-1.82

# Part of the list above, set out differently:
binder	measurement	setting	value
B1	glycan array binding signal (z-score)	Kdn(a2-3)Gal(b1-4)Glc	1.43
same	glycan array binding signal (z-score)	[20]	-1.82
